# Results published in patent US20240141352A1, “CHAPERONIN-CONTAINING TCP-1 INHIBITORS FOR THE TREATMENT OF CANCER” (UNIVERSITY OF CENTRAL FLORIDA RESEARCH FOUNDATION, INC., priority 2021, published 2024).
# At least one structure is not confirmed: it was looked up by name or label, or the drawing left a doubt.
# Assays:
# T47D = test: MTT viability, increasing concentration of Palbociclib for 6 days; assay type: cell-based, human
# CCT2 [1] = test: Immunoblot of CCT2 protein during palbociclib treatment; assay type: cell-based, human; conditions: 1 μM palbociclib for 6 days, T47D and MCF-7, immunoblot
# [2] = test system: Cells that overexpress CCT2; test: Long term drug resistance to 1 μM Palbociclib, cell growth curve from confluency; assay type: cell-based
# CCT2 [3] = test: Native non-denaturing gel of CCT2 oligomer and monomer after palbociclib; assay type: cell-based, human; conditions: palbociclib 1 μM, 0-6 days
# CCT2 [4] = test: RT-qPCR of total CCT2 and CCT2-FLAG mRNA during palbociclib treatment; assay type: cell-based; conditions: 1 μM Palbociclib, days 0 and 6, RT-qPCR relative to GAPDH
# T47D cells = test: MTT viability, CCT2 shRNA depletion combined with palbociclib; assay type: cell-based, human; conditions: 200 nM palbociclib plus 0.5 μg/ml doxycycline-induced CCT2 shRNA, 4 days
# MCF7 = test: MTT viability, increasing concentration of Palbociclib for 6 days; assay type: cell-based, human; conditions: MCF7, 6 days
structure (smiles),measurement,setting,value
CC(=O)c1c(C)c2cnc(Nc3ccc(N4CCNCC4)cn3)nc2n(C2CCCC2)c1=O [palbociclib],IC50 in CCT2-FLAG expressing cells compared to lentiviral control,T47D,higher IC50
same,CCT2 protein levels during treatment,CCT2 [1],decrease
same,resistance of CCT2 overexpressing cells versus control cells,[2],more resistant
same,monomeric CCT2 protein after treatment,CCT2 [3],increases
same,CCT2 mRNA expression during treatment,CCT2 [4],increases
same,"viability, combination versus treatments alone",T47D cells,more effective than treatments alone
same,IC50 in CCT2-FLAG expressing cells compared to lentiviral control,MCF7,higher IC50
